Results are given in words; binding and its absence hold for the method and conditions named. Binding seen in cells or lysates may run through a third protein. A yes stands for co-enrichment or nearness to the bait. Other partners may have been found. Where a sequence is shown, tags or fusion partners need not be part of it.
B1: 60 kDa heat shock protein, mitochondrial (HSP60), P10809 27-573 (protein)
chain: AKDVKFGADARALMLQGVDLLADAVAVTMGPKGRTVIIEQSWGSPKVTKDGVTVAKSIDLKDKYKNIGAKLVQDVANNTNEEAGDGTTTATVLARSIAKEGFEKISKGANPVEIRRGVMLAVDAVIAELKKQSKPVTTPEEIAQVATISANGDKEIGNIISDAMKKVGRKGVITVKDGKTLNDELEIIEGMKFDRGYISPYFINTSKGQKCEFQDAYVLLSEKKISSIQSIVPALEIANAHRKPLVIIAEDVDGEALSTLVLNRLKVGLQVVAVKAPGFGDNRKNQLKDMAIATGGAVFGEEGLTLNLEDVQPHDLGKVGEVIVTKDDAMLLKGKGDKAQIEKRIQEIIEQLDVTTSEYEKEKLNERLAKLSDGVAVLKVGGTSDVEVNEKKDRVTDALNATRAAVEEGIVLGGGCALLRCIPALDSLTPANEDQKIGIEIIKRTLKIPAMTIAKNAGVEGSLIVEKIMQSSSEVGYDAMAGDFVNMVEKGIIDPTKVVRTALLDAAGVASLLTTAEVVVTEIPKEEKDPGMGAMGGMGGGMGGGMF
B2: protocadherin-18 (protein, UniProt Q9HCL0 28-1135)
chain: KNLKYRIYEEQRVGSVIARLSEDVADVLLKLPNPSTVRFRAMQRGNSPLLVVNEDNGEISIGATIDREQLCQKNLNCSIEFDVITLPTEHLQLFHIEVEVLDINDNSPQFSRSLIPIEISESAAVGTRIPLDSAFDPDVGENSLHTYSLSANDFFNIEVRTRTDGAKYAELIVVRELDRELKSSYELQLTASDMGVPQRSGSSILKISISDSNDNSPAFEQQSYIIQLLENSPVGTLLLDLNATDPDEGANGKIVYSFSSHVSPKIMETFKIDSERGHLTLFKQVDYEITKSYEIDVQAQDLGPNSIPAHCKIIIKVVDVNDNKPEININLMSPGKEEISYIFEGDPIDTFVALVRVQDKDSGLNGEIVCKLHGHGHFKLQKTYENNYLILTNATLDREKRSEYSLTVIAEDRGTPSLSTVKHFTVQINDINDNPPHFQRSRYEFVISENNSPGAYITTVTATDPDLGENGQVTYTILESFILGSSITTYVTIDPSNGAIYALRIFDHEEVSQITFVVEARDGGSPKQLVSNTTVVLTIIDENDNVPVVIGPALRNNTAEITIPKGAESGFHVTRIRAIDRDSGVNAELSCAIVAGNEENIFIIDPRSCDIHTNVSMDSVPYTEWELSVIIQDKGNPQLHTKVLLKCMIFEYAESVTSTAMTSVSQASLDVSMIIIISLGAICAVLLVIMVLFATRCNREKKDTRSYNCRVAESTYQHHPKRPSRQIHKGDITLVPTINGTLPIRSHHRSSPSSSPTLERGQMGSRQSHNSHQSLNSLVTISSNHVPENFSLELTHATPAVEQVSQLLSMLHQGQYQPRPSFRGNKYSRSYRYALQDMDKFSLKDSGRGDSEAGDSDYDLGRDSPIDRLLGEGFSDLFLTDGRIPAAMRLCTEECRVLGHSDQCWMPPLPSPSSDYRSNMFIPGEEFPTQPQQQHPHQSLEDDAQPADSGEKKKSFSTFGKDSPNDEDTGDTSTSSLLSEMSSVFQRLLPPSLDTYSECSEVDRSNSLERRKGPLPAKTVGYPQGVAAWAASTHFQNPTTNCGPPLGTHSSVQPSSKWLPAMEEIPENYEEDDFDNVLNHLNDGKHELMDASELVAEINKLLQDVRQS
B3: Dihydrolipoamide dehydrogenase (DLDH) (enzyme, UniProt P09622 36-509)
chain: ADQPIDADVTVIGSGPGGYVAAIKAAQLGFKTVCIEKNETLGGTCLNVGCIPSKALLNNSHYYHMAHGKDFASRGIEMSEVRLNLDKMMEQKSTAVKALTGGIAHLFKQNKVVHVNGYGKITGKNQVTATKADGGTQVIDTKNILIATGSEVTPFPGITIDEDTIVSSTGALSLKKVPEKMVVIGAGVIGVELGSVWQRLGADVTAVEFLGHVGGVGIDMEISKNFQRILQKQGFKFKLNTKVTGATKKSDGKIDVSIEAASGGKAEVITCDVLLVCIGRRPFTKNLGLEELGIELDPRGRIPVNTRFQTKIPNIYAIGDVVAGPMLAHKAEDEGIICVEGMAGGAVHIDYNCVPSVIYTHPEVAWVGKSEEQLKEEGIEYKVGKFPFAANSRAKTNADTDGMVKILGQKSTDRVLGAHILGPGAGEMVNEAALALEYGASCEDIARVCHAHPTLSEAFREANLAASFGKSINF
B4: Methylmalonic aciduria and homocystinuria type D protein, mitochondrial (MMAD) (protein, UniProt Q9H3L0 39-296)
chain: SDESHVAAAPPDICSRTVWPDETMGPFGPQDQRFQLPGNIGFDCHLNGTASQKKSLVHKTLPDVLAEPLSSERHEFVMAQYVNEFQGNDAPVEQEINSAETYFESARVECAIQTCPELLRKDFESLFPEVANGKLMILTVTQKTKNDMTVWSEEVEIEREVLLEKFINGAKEICYALRAEGYWADFIDPSSGLAFFGPYTNNTLFETDERYRHLGFSVDDLGCCKVIRHSLWGTHVVVGSIFTNATPDSHIMKKLSGN
B5: Coenzyme Q biosynthesis monooxygenase (CoQ6) (enzyme, UniProt Q9Y2Z9 29-468)
chain: GASTDTVYDVVVSGGGLVGAAMACALGYDIHFHDKKILLLEAGPKKVLEKLSETYSNRVSSISPGSATLLSSFGAWDHICNMRYRAFRRMQVWDACSEALIMFDKDNLDDMGYIVENDVIMHALTKQLEAVSDRVTVLYRSKAIRYTWPCPFPMADSSPWVHITLGDGSTFQTKLLIGADGHNSGVRQAVGIQNVSWNYDQSAVVATLHLSEATENNVAWQRFLPSGPIALLPLSDTLSSLVWSTSHEHAAELVSMDEEKFVDAVNSAFWSDADHTDFIDTAGAMLQYAVSLLKPTKVSARQLPPSVARVDAKSRVLFPLGLGHAAEYVRPRVALIGDAAHRVHPLAGQGVNMGFGDISSLAHHLSTAAFNGKDLGSVSHLTGYETERQRHNTALLAATDLLKRLYSTSASPLVLLRTWGLQATNAVSPLKEQIMAFASK
B6: Thioredoxin2 (THIO2) (protein, UniProt Q99757 60-166)
chain: TTFNIQDGPDFQDRVVNSETPVVVDFHAQWCGPCKILGPRLEKMVAKQHGKVVMAKVDIDDHTDLAIEYEVSAVPTVLAMKNGDVVDKFVGIKDEDQLEAFLKKLIG
B7: Peroxiredoxin-1 (PRDX1) (enzyme, UniProt Q06830 1-199)
chain: MSSGNAKIGHPAPNFKATAVMPDGQFKDISLSDYKGKYVVFFFYPLDFTFVCPTEIIAFSDRAEEFKKLNCQVIGASVDSHFCHLAWVNTPKKQGGLGPMNIPLVSDPKRTIAQDYGVLKADEGISFRGLFIIDDKGILRQITVNDLPVGRSVDETLRLVQAFQFTDKHGEVCPAGWKPGSDTIKPDVQKSKEYFSKQK
B8: Peroxiredoxin-2 (PRDX2) (enzyme, UniProt P32119 1-198)
chain: MASGNARIGKPAPDFKATAVVDGAFKEVKLSDYKGKYVVLFFYPLDFTFVCPTEIIAFSNRAEDFRKLGCEVLGVSVDSQFTHLAWINTPRKEGGLGPLNIPLLADVTRRLSEDYGVLKTDEGIAYRGLFIIDGKGVLRQITVNDLPVGRSVDEALRLVQAFQYTDEHGEVCPAGWKPGSDTIKPNVDDSKEYFSKHN

Molecular target: T1, Human Lon protease with Myc tag (human), P36776
T1 chain: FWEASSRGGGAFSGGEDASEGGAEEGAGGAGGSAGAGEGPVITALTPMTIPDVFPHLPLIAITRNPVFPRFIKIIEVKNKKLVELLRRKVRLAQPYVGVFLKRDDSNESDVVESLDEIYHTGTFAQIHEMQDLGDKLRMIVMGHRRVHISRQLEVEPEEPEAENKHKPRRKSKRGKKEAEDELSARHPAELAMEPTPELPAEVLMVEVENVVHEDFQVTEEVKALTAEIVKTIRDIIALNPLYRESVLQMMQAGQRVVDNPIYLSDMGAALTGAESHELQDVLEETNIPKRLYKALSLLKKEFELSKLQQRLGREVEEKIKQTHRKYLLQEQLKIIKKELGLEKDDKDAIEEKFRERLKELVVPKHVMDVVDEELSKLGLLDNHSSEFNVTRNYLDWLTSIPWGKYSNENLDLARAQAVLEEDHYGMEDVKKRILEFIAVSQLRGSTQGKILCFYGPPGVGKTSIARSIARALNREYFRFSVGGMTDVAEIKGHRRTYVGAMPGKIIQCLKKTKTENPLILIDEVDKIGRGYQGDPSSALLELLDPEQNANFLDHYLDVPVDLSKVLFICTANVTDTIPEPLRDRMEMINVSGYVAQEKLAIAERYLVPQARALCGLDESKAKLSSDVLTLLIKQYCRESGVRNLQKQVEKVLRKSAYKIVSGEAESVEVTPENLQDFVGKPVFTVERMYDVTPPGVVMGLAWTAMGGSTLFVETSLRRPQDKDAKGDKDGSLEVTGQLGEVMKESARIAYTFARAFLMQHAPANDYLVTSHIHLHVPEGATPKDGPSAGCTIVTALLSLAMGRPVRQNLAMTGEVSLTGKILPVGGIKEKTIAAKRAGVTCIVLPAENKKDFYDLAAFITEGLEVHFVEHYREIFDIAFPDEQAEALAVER
Test: affinity purification with mass spectrometry; Lon-myc immunocomplex from 293/Lon lysate on anti-c-Myc agarose, washed with NETN, eluted by 6 M urea, in-solution digestion, shotgun nanoLC-MS/MS; three experiments, 293/myc cells as negative control
Details: remark: other sources report otherwise

Binder | binding
B1 | binds

molecular target: T2, Human Lon protease with Myc tag (human) (UniProt P36776); test: affinity purification with mass spectrometry; anti-myc Co-IP from 293/Lon cells; eluate resolved by 1-D SDS-PAGE, bands digested in gel and identified by mass spectrometry; details: not given
T2 sequence: T1 chain

Binder | binding
B2 | binds

molecular target: T2, Human Lon protease with Myc tag (human); test: affinity purification with mass spectrometry; Lon-myc immunocomplex from 293/Lon lysate on anti-c-Myc agarose, washed with NETN, eluted by 6 M urea, in-solution digestion, shotgun nanoLC-MS/MS; three experiments, 293/myc cells as negative control; details: not given

Binder | binding
B3 | binds
B4 | binds
B5 | binds
B6 | binds
B7 | binds
B8 | binds
B2 | binds
